Measurements reported in PubChem BioAssay AID1259254 (NCATS, 2017)
In all, the deposit lists about 59,000 reagents; below is an unselected part. About 1,550 of all reagents (2.6%) were called active. 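G2 share is only a proxy for re-replication; each gene was hit by three separate siRNAs, and active genes were retested.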 Reagents against one gene are numbered here. Further read-outs or replicates are left out here. Not given: the amount of reagent.

Test: 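Finding genes that stop cells copying their DNA twice in one cycle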 (primary screen)
Cells: human HCT116 colorectal cancer cells
Reagent: single siRNA against human genes
Timing: 3 days
Detection: 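Imaged Hoechst DNA stain sorts each cell into a cycle phase by DNA amount; per plate, G2 fraction set to 0% for non-targeting and 100% for GMNN siRNA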
Scale: G2 robust z-score and G2 cells, % of GMNN control: higher = more G2 cells, more excess DNA replication
Active means: 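An siRNA counts as active if its G2 robust z-score lies at least 5 MADs above the screen median; here such calls match roughly 38% of GMNN control or more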

gene knocked down	siRNA no.	G2 robust z-score	G2 cells, % of GMNN control	Call
SIGLEC5	1	2.05	17.4	inactive
SIGLEC5	2	1.69	14.9	inactive
SIGLEC5	3	-1.03	-4.25	inactive
STRIP2	1	-0.856	-3.06	inactive
STRIP2	2	-0.628	-1.45	inactive
STRIP2	3	-0.495	-0.513	inactive
MTFR1	1	-0.739	-2.23	inactive
MTFR1	2	0.256	4.77	inactive
MTFR1	3	-0.543	-0.852	inactive
PSKH2	1	-0.97	-3.85	inactive
PSKH2	2	-0.963	-3.81	inactive
PSKH2	3	-0.536	-0.806	inactive
UGT2B10	1	0.569	6.97	inactive
UGT2B10	2	2.97	23.9	inactive
UGT2B10	3	0.0585	3.38	inactive
ENPP1	1	0.102	3.69	inactive
ENPP1	2	-0.0985	2.27	inactive
ENPP1	3	-0.193	1.61	inactive
JPT2	1	-0.926	-3.55	inactive
JPT2	2	-0.74	-2.24	inactive
JPT2	3	0.15	4.02	inactive
BAZ2B	1	0.204	4.4	inactive
BAZ2B	2	-1.07	-4.54	inactive
BAZ2B	3	-0.348	0.516	inactive
TACR3	1	2.52	20.7	inactive
TACR3	2	-0.263	1.12	inactive
TACR3	3	2.95	23.7	inactive
C10orf95	1	-1.1	-4.76	inactive
C10orf95	2	-0.343	0.555	inactive
C10orf95	3	0.124	3.84	inactive
CAPN13	1	-1.33	-6.4	inactive
CAPN13	2	-0.291	0.917	inactive
CAPN13	3	-0.369	0.372	inactive
JADE3	1	0.426	5.96	inactive
JADE3	2	-0.253	1.19	inactive
JADE3	3	-1.32	-6.34	inactive
CLRN2	1	0.139	3.95	inactive
CLRN2	2	-0.94	-3.65	inactive
CLRN2	3	-0.394	0.195	inactive
CD99P1	1	-0.826	-2.84	inactive
CD99P1	2	0.164	4.12	inactive
CD99P1	3	0.185	4.27	inactive
AIRE	1	0.534	6.72	inactive
AIRE	2	3.97	30.9	inactive
AIRE	3	0.338	5.35	inactive
FRMD1	1	0.569	6.97	inactive
FRMD1	2	1.05	10.3	inactive
FRMD1	3	0.59	7.12	inactive
AK2	1	-1.09	-4.74	inactive
AK2	2	-0.21	1.49	inactive
AK2	3	0.651	7.54	inactive
MBP	1	0.592	7.13	inactive
MBP	2	-1.06	-4.5	inactive
MBP	3	1.66	14.6	inactive
KIN	1	0.591	7.13	inactive
KIN	2	-0.436	-0.1	inactive
KIN	3	-0.424	-0.0149	inactive
CRIP3	1	-0.191	1.63	inactive
CRIP3	2	0.398	5.76	inactive
CRIP3	3	0.0821	3.55	inactive
PRPF8	1	5.06	38.6	active
PRPF8	2	2.49	20.5	inactive
PRPF8	3	3.11	24.9	inactive
MOB3C	1	0.284	4.97	inactive
MOB3C	2	-0.93	-3.58	inactive
MOB3C	3	3.96	30.9	inactive
GPAA1	1	1.98	16.9	inactive
GPAA1	2	0.228	4.57	inactive
GPAA1	3	-0.872	-3.17	inactive

Active calls, among the entries above:
gene knocked down	siRNA no.	G2 robust z-score	G2 cells, % of GMNN control	Call
PRPF8	1	5.06	38.6	active
